These are yes or no findings as the source states them, for the method shown. In cells and extracts the contact can be indirect. Binding calls can cover weak binding; strength is not graded here.
Molecular target: HA-tagged CAP1 (human) (UniProt Q01518)
Experiment: co-IP; PCSK9 or PCSK9-Δ33-58 and HA-tagged CAP1 expressed in HepG2 PCSK9−/− cells; serum free medium precipitated with HA-coupled agarose beads; blots with anti-CAP1 and anti-PCSK9

By UniProt entry, the sequences of proteins in these tests, tags left out. Where a name states a change or a piece, a line headed by the entry shows the natural chain unless it says otherwise.
UniProt Q01518: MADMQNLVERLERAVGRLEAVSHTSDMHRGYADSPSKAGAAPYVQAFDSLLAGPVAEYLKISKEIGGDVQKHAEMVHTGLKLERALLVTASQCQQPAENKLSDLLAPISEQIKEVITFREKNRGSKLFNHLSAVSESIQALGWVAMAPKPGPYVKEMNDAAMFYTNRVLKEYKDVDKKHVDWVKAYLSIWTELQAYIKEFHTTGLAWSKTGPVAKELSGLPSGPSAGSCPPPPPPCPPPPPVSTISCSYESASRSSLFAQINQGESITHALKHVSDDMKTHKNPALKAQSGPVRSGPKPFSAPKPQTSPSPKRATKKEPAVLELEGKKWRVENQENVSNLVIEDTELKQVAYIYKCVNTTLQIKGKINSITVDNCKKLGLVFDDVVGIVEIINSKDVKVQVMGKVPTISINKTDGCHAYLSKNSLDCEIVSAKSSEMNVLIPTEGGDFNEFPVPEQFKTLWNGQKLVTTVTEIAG
UniProt Q8NBP7: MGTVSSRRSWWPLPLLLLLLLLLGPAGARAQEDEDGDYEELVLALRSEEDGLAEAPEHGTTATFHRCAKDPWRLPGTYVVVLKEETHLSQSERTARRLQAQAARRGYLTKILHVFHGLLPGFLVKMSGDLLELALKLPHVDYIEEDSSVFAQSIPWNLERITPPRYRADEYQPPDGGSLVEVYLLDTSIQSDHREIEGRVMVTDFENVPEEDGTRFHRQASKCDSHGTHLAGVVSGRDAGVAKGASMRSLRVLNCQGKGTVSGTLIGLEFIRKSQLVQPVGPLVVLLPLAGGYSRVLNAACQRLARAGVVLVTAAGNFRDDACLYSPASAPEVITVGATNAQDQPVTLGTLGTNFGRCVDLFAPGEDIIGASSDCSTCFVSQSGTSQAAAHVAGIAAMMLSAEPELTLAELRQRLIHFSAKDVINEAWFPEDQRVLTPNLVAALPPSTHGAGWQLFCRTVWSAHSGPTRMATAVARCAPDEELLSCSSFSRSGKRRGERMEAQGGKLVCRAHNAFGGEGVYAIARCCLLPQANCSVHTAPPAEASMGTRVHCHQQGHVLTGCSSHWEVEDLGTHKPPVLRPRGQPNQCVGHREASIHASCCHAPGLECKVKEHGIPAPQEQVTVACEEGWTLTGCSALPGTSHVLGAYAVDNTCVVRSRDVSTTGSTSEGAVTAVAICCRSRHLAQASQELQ

binding | Substance
binds | PCSK9-Δ33-58 (from UniProt Q8NBP7)
binds | V5-tagged PCSK9 (PCSK9-WT, pIRES2-EGFP-hPCSK9-WT-V5) (from UniProt Q8NBP7)

From article PMC9816786
